Some of the results follow. Further columns of the screen follow, without active or inactive calls. Most of these compounds were active or inconclusive in the main read-out, so they are no random draw. Potencies come from curve fits of mixed quality, noted in brackets.
Assay: qHTS Assay for Lipid Storage Modulators in Drosophila S3 Cells;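 as to cell number change: cells counted by Cell Tracker Red CMTPX staining in the red channel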
Conditions: BODIPY lipid droplet fluorescence, 18-24 h; for cell number change: measured here: cell count max response, cells fed with added oleic acid
In short: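 Drosophila S3 cells loaded with oleic acid (400 uM, as added) and compounds at several concentrations; lipid droplets imaged by 488-nm laser-scanning cytometry, 500–530 nm intensity and object ratio to cell channel. Percent activity normalized to 20 uM Triacsin C.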

[1] = measured here: lipid fluorescence (Fed channel) AC50, cells fed with added oleic acid
[2] = measured here: cell number channel AC50, cells fed with added oleic acid

CCN(c1ccc(NC(=O)COC(=O)c2cc3ccccc3oc2=O)cc1)C(C)C
cell number change: 34.7%

Cn1c(SCC(=O)Nc2ccc(NC(=O)c3cccc(F)c3)cc2)nnc1-c1ccncc1
cell number change: -19.4% | AC50 [1]: 11.6 µM [rising, single point]

O=C(CCCSc1nc2ccccc2[nH]1)NCc1ccccc1F
cell number change: -25.5% | AC50 [2]: 2.06 µM [rising, single point]

Cc1cccc2c1N(CCCOc1ccc(C(C)(C)C)cc1)C(=O)C2=O
cell number change: -66.4% | AC50 [2]: 25.9 µM [falling, single point] | AC50 [1]: 23.1 µM [falling, partial curve]

COc1ccc(/C=N/NC(=O)c2ccc(CSc3nc(C)cc(C)n3)cc2)c(OC)c1OC
cell number change: 14.1% | AC50 [1]: 2.06 µM [rising, partial curve]

Cc1ccc(S(=O)(=O)N/N=C\c2ccc3c(c2)OCO3)cc1
AC50 [1]: 32.6 µM [rising, single point]

COc1ccc(CNC(=O)c2cccc(-c3ccc(C)c4ccccc34)n2)cc1
cell number change: -10.5%

CCOc1ccc(OCCNC(=O)C(NC(=O)c2c(F)cccc2F)C(C)C)cc1 (stereo unspecified)
cell number change: 29.3% | AC50 [1]: 1.84 µM [falling, partial curve]

O=C(Nc1ccc(CN2CCCCC2)cc1)Nc1ccccc1Cl
cell number change: -47.8% | AC50 [2]: 7.31 µM [falling, single point] | AC50 [1]: 7.31 µM [falling, partial curve, poor fit]

COc1ccc(C(=O)n2cnc(N)n2)cc1
cell number change: 0.738% | AC50 [1]: 16.4 µM [rising, partial curve, poor fit]

O=C1CC(C(=O)Nc2cccc3ccccc23)C2(CCCC2)O1 (stereo unspecified)
cell number change: 8.14% | AC50 [1]: 0.411 µM [rising, partial curve, poor fit]

O=C(Oc1ccnc2cc(Cl)ccc12)N1CCCCCC1
cell number change: -9.32%

CCCn1c(SCC(=O)N2CCCCC2)nnc1C(C)C
cell number change: -53.2% | AC50 [2]: 18.4 µM [falling, partial curve] | AC50 [1]: 23.1 µM [falling, partial curve]

CCc1cc(-c2n[nH]c(C)c2-c2nc3ccccc3n2C)c(O)c(CN2CCN(C)CC2)c1O
cell number change: -12.4% | AC50 [2]: 0.116 µM [falling, full curve, poor fit] | AC50 [1]: 13 µM [falling, partial curve]

Nc1nc(SCC(=O)O)[nH]c(=O)c1NC(=O)c1ccccc1F
cell number change: -33.2% | AC50 [2]: 0.058 µM [falling, full curve, poor fit] | AC50 [1]: 29.1 µM [falling, single point]

CCOc1ccccc1NC(=O)c1cc(C(=O)c2cc(OC)ccc2O)coc1=N
cell number change: 100% | AC50 [2]: 18.4 µM [rising, partial curve]

Cc1ccc(NC2=NC(c3ccco3)n3c(nc(C)cc3=O)N2)c(C)c1 (stereo unspecified)
cell number change: -10.8% | AC50 [2]: 0.731 µM [falling, single point] | AC50 [1]: 1.16 µM [rising, single point]

Cc1cc(OCC(=O)NNC(=O)c2ccncc2)cc(C)c1Cl
cell number change: -31.2% | AC50 [2]: 11.6 µM [falling, partial curve] | AC50 [1]: 29.1 µM [rising, single point]

NC(=O)C1CCN(C(c2ccccc2Cl)c2nnnn2Cc2ccc3c(c2)OCO3)CC1 (stereo unspecified)
cell number change: 81.8% | AC50 [2]: 6.51 µM [rising, full curve]

COc1cccc(N(C(=O)CNC(=O)c2ccco2)C(C(=O)NC2CCCC2)c2cccnc2)c1 (stereo unspecified)
cell number change: 32.5% | AC50 [2]: 29.1 µM [rising, single point]

O=C1c2ccccc2C(=Nc2ccccc2)C1c1cccc(Br)c1 (stereo unspecified)
cell number change: -34.8% | AC50 [2]: 18.4 µM [falling, single point] | AC50 [1]: 20.6 µM [falling, single point]

O=C1NC(c2ccccc2OC(F)F)Oc2ccccc21 (stereo unspecified)
AC50 [2]: 0.82 µM [rising, single point] | AC50 [1]: 0.58 µM [rising, full curve, poor fit]

CC1CCCCC12NC(=O)N(CC(=O)N1CCN(S(=O)(=O)c3ccc4c(c3)CCC4)CC1)C2=O (stereo unspecified)
cell number change: 5.22%

Cc1ccc(-n2c(Cc3noc4ccccc34)n[nH]c2=S)cc1
cell number change: 15.4% | AC50 [1]: 1.46 µM [rising, full curve, poor fit]

CC(=O)Nc1ccc(NC(=O)C(C)OC(=O)C2CCCCC2)cc1 (stereo unspecified)
cell number change: -58.4% | AC50 [2]: 29.1 µM [falling, single point] | AC50 [1]: 2.06 µM [falling, full curve]

Cc1ccc(S(=O)(=O)N2CCC(=O)N(CCOC(=O)Nc3cccc(Cl)c3)CC2)cc1
cell number change: 8.84% | AC50 [1]: 0.411 µM [rising, full curve, poor fit]

CCC1=NNC(=O)C(CC(=O)Nc2ccccc2)c2cc(OC)c(OC)cc21 (stereo unspecified)
cell number change: 30.1% | AC50 [2]: 20.6 µM [rising, single point] | AC50 [1]: 10.3 µM [rising, partial curve, poor fit]

O=C(Nc1ccccc1N1CCOCC1)c1cc(-c2ccco2)nc2ccccc12
cell number change: 15.7% | AC50 [2]: 0.461 µM [rising, full curve, poor fit] | AC50 [1]: 1.46 µM [rising, partial curve]

C(=N\N1CCN(c2ccccn2)CC1)/c1ccccn1
cell number change: -57.4% | AC50 [2]: 29.1 µM [falling, single point] | AC50 [1]: 29.1 µM [falling, single point]

Cc1ccc(F)cc1NC(=O)c1cnccn1
AC50 [2]: 6.51 µM [rising, single point] | AC50 [1]: 5.8 µM [rising, partial curve, poor fit]

O=C1C=C(c2ccc(F)nc2)C[C@@H](c2ccc3c(c2)OCO3)C1
cell number change: 4.66% | AC50 [1]: 23.1 µM [rising, single point]

CCOC(=O)c1c(NC(=O)C2=COCCO2)sc2c1CCN(C(=O)OC)C2
cell number change: 29.1% | AC50 [2]: 1.03 µM [rising, full curve, poor fit] | AC50 [1]: 1.46 µM [rising, full curve]

CNc1ncc(C(=O)c2ccc(Br)cc2)s1
cell number change: 5.69%

Nc1nc(CSc2nc3ccccc3[nH]2)cs1
cell number change: 33.6% | AC50 [2]: 29.1 µM [rising, single point] | AC50 [1]: 0.651 µM [rising, full curve, poor fit]
